{"sequences": {"note": "Amino acid sequences for entries named in this document (tags omitted).", "UniProt Q0JBA9, entry or part of it": "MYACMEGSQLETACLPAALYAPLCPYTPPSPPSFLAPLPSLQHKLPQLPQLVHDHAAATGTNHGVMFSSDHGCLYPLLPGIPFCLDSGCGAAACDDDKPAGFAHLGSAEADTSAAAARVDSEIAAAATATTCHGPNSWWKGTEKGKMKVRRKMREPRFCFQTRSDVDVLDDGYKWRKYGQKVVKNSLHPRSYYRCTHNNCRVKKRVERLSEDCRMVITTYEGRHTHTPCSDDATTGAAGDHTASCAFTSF"}, "source": "paper PMC7819943", "about": "“Rice protein-binding microarrays: a tool to detect cis-acting elements near promoter regions in rice”", "note": "Some of the results follow.", "data": [{"target": "OsWRKY34 (Oryza sativa, UniProt Q0JBA9 1-250)", "assay": "protein-binding microarray (RPBM); PBS, 2% BSA, 51.3 ng/ul salmon testes DNA, 50 uM zinc acetate, 200 nM TF, 25 C, 1 h; high values mean tight binding", "settings": "protein: recombinant; tags: N-terminal polyhistidine and DsRed monomer fusion (pET32a); label: CyDye5-dUTP incorporated in the synthesized complementary strand; 3' TTTTT single-stranded linker to array surface; dsDNA, one strand shown", "procedure,_shortened": "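Binding signal is defined as the fluorescence intensity of each feature in arbitrary units, read on an Axon 4000B scanner. Transcription factors with N-terminal polyhistidine and DsRed fusions came from E. coli BL21-CodonPlus and were purified on Ni–NTA. They were incubated at 200 nM for 1 h at 25 °C on a custom Agilent array that had been made double-stranded with Cy5-dUTP, with 50 µM zinc acetate present, and the array was washed.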", "values": [{"sequence": "GGGAGGGGCATGGGAGGAATCAAAGCGAAATTTCAAGGGTCGGAGTCACCTAGTGCAG", "binding signal": "9760 fluorescence intensity (a.u.)"}, {"sequence": "CTCCTCAACCCGCTCTCCGGCCACCGCCCGCTCGACGCGCCGGAGTCACCTAGTGCAG", "binding signal": "9570 fluorescence intensity (a.u.)"}, {"sequence": "GCCCGGATCGTTGACCCTTCCTTCCCTACTCGGTGTCTTTCGGAGTCACCTAGTGCAG", "binding signal": "13600 fluorescence intensity (a.u.)"}, {"sequence": "ATCGATACCACTTCCCATCCACCATATTCCAATGCTACCTCGGAGTCACCTAGTGCAG", "binding signal": "9300 fluorescence intensity (a.u.)"}, {"sequence": "GTTATTTTGCACCGTTTAACTATTTGCCACTTTTAGATTTCGGAGTCACCTAGTGCAG", "binding signal": "8440 fluorescence intensity (a.u.)"}, {"sequence": "CCCCGCGCATCTCGCCGTCCACCGCCTCACTCCATCCACCCGGAGTCACCTAGTGCAG", "binding signal": "9000 fluorescence intensity (a.u.)"}, {"sequence": "TTTTGCTTGCAACGTTTGACCACTCGTCTTATTCAAATTTCGGAGTCACCTAGTGCAG", "binding signal": "10200 fluorescence intensity (a.u.)"}, {"sequence": "TTGTGCTCCACCGCTCTGTTCTGCCCAGTGCCAGCAGTGTCGGAGTCACCTAGTGCAG", "binding signal": "9420 fluorescence intensity (a.u.)"}, {"sequence": "CAAGGCCATGTGCCATGTTTGACCGACTACTCCTACAAACCGGAGTCACCTAGTGCAG", "binding signal": "9520 fluorescence intensity (a.u.)"}, {"sequence": "AGCCACTATTCGCTGTGCCGATCCACACTGCGGTTTTATTCGGAGTCACCTAGTGCAG", "binding signal": "8760 fluorescence intensity (a.u.)"}, {"sequence": "CACCTGTCATCCACCATTCCCCATACCCGTCCGTGTCACGCGGAGTCACCTAGTGCAG", "binding signal": "8870 fluorescence intensity (a.u.)"}, {"sequence": "CCCTGCTCTTGCATAATGCATTTAGCCTATTTGGTCTTCACGGAGTCACCTAGTGCAG", "binding signal": "9700 fluorescence intensity (a.u.)"}, {"sequence": "GGGTTTTCACTTACCGGTTTTAAGGGTCCCTTTAAATTATCGGAGTCACCTAGTGCAG", "binding signal": "8490 fluorescence intensity (a.u.)"}, {"sequence": "GCCTGCTATTGTACCTGCTTTAATATAGCCAACCTACTATCGGAGTCACCTAGTGCAG", "binding signal": "8330 fluorescence intensity (a.u.)"}, {"sequence": "ACCTCAACAAAAGCTTTGTAGTAGCTCTTAATTGTTGGGTCGGAGTCACCTAGTGCAG", "binding signal": "8220 fluorescence intensity (a.u.)"}, {"sequence": "GCCGTCTCGCCATTTTGACCAGACCACCTCGCTGCCTCTGCGGAGTCACCTAGTGCAG", "binding signal": "10600 fluorescence intensity (a.u.)"}, {"sequence": "TCCAGATCGCACGCATTGACCAGACCACCCAACTCTACTTCGGAGTCACCTAGTGCAG", "binding signal": "9490 fluorescence intensity (a.u.)"}, {"sequence": "TGAGACAAAGCACATTCTACCCAAGGCCAGTTGCACCAACCGGAGTCACCTAGTGCAG", "binding signal": "8080 fluorescence intensity (a.u.)"}, {"sequence": "ATTTGCTCTCGTCCATGGGTTAATTTCTGGATTATCACGACGGAGTCACCTAGTGCAG", "binding signal": "8100 fluorescence intensity (a.u.)"}, {"sequence": "TGATATGGTTGGAGGGATGATGCTTTATAAGTTGGTTCCACGGAGTCACCTAGTGCAG", "binding signal": "8600 fluorescence intensity (a.u.)"}, {"sequence": "CCCCTCGCCGGTCTGTTTGTGGGCTCTATCTAGCTCGGGGCGGAGTCACCTAGTGCAG", "binding signal": "11200 fluorescence intensity (a.u.)"}, {"sequence": "GCTACACATATTCCCTCCTTTTTCATCTCCTTCATTGTAACGGAGTCACCTAGTGCAG", "binding signal": "8920 fluorescence intensity (a.u.)"}, {"sequence": "TTTTAATCCTTTGTTCAGTAACACATTTTGCTAGATCTGTCGGAGTCACCTAGTGCAG", "binding signal": "9490 fluorescence intensity (a.u.)"}, {"sequence": "GTTAACTTGCTTATATGGTACTAGAAGAAAAACTTAATGGCGGAGTCACCTAGTGCAG", "binding signal": "64900 fluorescence intensity (a.u.)"}, {"sequence": "CATTTTACCTGTATTGTTTAACTATTTGTCTTATTTAAAACGGAGTCACCTAGTGCAG", "binding signal": "8460 fluorescence intensity (a.u.)"}, {"sequence": "TGGACATGAGTCCTACTGGCAGCTGCTTCACTGGCTGTGCCGGAGTCACCTAGTGCAG", "binding signal": "8810 fluorescence intensity (a.u.)"}, {"sequence": "TCCATTTCGGCATCGGCTCCGCCCTCTCTTCTCTTCCGCTCGGAGTCACCTAGTGCAG", "binding signal": "9560 fluorescence intensity (a.u.)"}, {"sequence": "ATTTTCTTCAGAGTTATTCTTTTCTTTTCTTTTCTTTTCTCGGAGTCACCTAGTGCAG", "binding signal": "8680 fluorescence intensity (a.u.)"}, {"sequence": "GCAACCACAACCACCAACGACGCCGATCGATCGAGCCAACCGGAGTCACCTAGTGCAG", "binding signal": "9000 fluorescence intensity (a.u.)"}, {"sequence": "CAGAACTTGTCCTTTTTTTTGCTTTGATATGTTCAGAAGACGGAGTCACCTAGTGCAG", "binding signal": "8730 fluorescence intensity (a.u.)"}, {"sequence": "CTCCTTATTACAGTATGCATGATCTACTACATGAGTTAGCCGGAGTCACCTAGTGCAG", "binding signal": "9430 fluorescence intensity (a.u.)"}, {"sequence": "CTAAAAATATTTATATTTTGGGAGGGAGGGAGTATCAATCCGGAGTCACCTAGTGCAG", "binding signal": "8550 fluorescence intensity (a.u.)"}, {"sequence": "TCATACCTACCATGGACTCATTTTATTTGAGCAACCTTTCCGGAGTCACCTAGTGCAG", "binding signal": "8720 fluorescence intensity (a.u.)"}, {"sequence": "CGTTTGCACCAGTGTATGTCCTGCGGCCGCCTCAATCGTTCGGAGTCACCTAGTGCAG", "binding signal": "8860 fluorescence intensity (a.u.)"}, {"sequence": "CTATTTTTTACCATCTACTACACGGCTTTTATTTCGTCATCGGAGTCACCTAGTGCAG", "binding signal": "9370 fluorescence intensity (a.u.)"}, {"sequence": "AGTGTCTGTTTCCATGTTGCTTCTTGTTAATGTAGGGTGACGGAGTCACCTAGTGCAG", "binding signal": "15700 fluorescence intensity (a.u.)"}, {"sequence": "CTCGTGTTCTTCGACGATTTCGTGGTCTCTAATTTGTTTTCGGAGTCACCTAGTGCAG", "binding signal": "9680 fluorescence intensity (a.u.)"}, {"sequence": "GCTCGATCTCCGACGTCATGCGCCGCTCGCTGCCCGTCGACGGAGTCACCTAGTGCAG", "binding signal": "8710 fluorescence intensity (a.u.)"}, {"sequence": "TGCTTGTGGTTTGTATGGAGTTTGGGTGAAGTGTCACGTACGGAGTCACCTAGTGCAG", "binding signal": "9660 fluorescence intensity (a.u.)"}, {"sequence": "ACGCGCCACCGCCACCGCCACCGCCATTGTGGGCCCTCGACGGAGTCACCTAGTGCAG", "binding signal": "9470 fluorescence intensity (a.u.)"}, {"sequence": "CTGTCGAAATTAATTACTCATCTTCATTCCAACTTTTTTTCGGAGTCACCTAGTGCAG", "binding signal": "8590 fluorescence intensity (a.u.)"}, {"sequence": "CCTTGACACTTAAAGCTGCAATTGAATCATTGCTTATGGACGGAGTCACCTAGTGCAG", "binding signal": "10100 fluorescence intensity (a.u.)"}]}]}
